Publication PMC11807975, “The secreted host-cell protein clusterin interacts with PmpD and promotes Chlamydia trachomatis infection” (Frontiers in Cellular and Infection Microbiology, 2024)
No constants are given. Whether binding was seen depends on the method and setting. Some binding calls cover weakened binding; strength is not graded here. Sequences can lack the tags named with a protein.

Target: recombinant D72 (rD72), proteolytically processed fragment of Chlamydia trachomatis serovar E PmpD, residues 68-761, N-terminal 10x His-Tag (Chlamydia trachomatis serovar E (DK-20)) (UniProt O84818)
Experiment: SEC; rD72 in PBS pH 7.4 on Superose 6 Increase 3.2/300, 0.05 ml/min, 4°C; fractions checked by SDS-PAGE; both purified

B1: recombinant D72 (rD72), proteolytically processed fragment of Chlamydia trachomatis serovar E PmpD, residues 68-761, N-terminal 10x His-Tag (domain or fragment)
chain: DSQAEGQYRLIVGDPSSFQEKDADTLPGKVEQSTLFSVTNPVVFQGVDQQDQVSSQGLICSFTSSNLDSPRDGESFLGIAFVGDSSKAGITLTDVKASLSGAALYSTEDLIFEKIKGGLEFASCSSLEQGGACAAQSILIHDCQGLQVKHCTTAVNAEGSSANDHLGFGGGAFFVTGSLSGEKSLYMPAGDMVVANCDGAISFEGNSANFANGGAIAASGKVLFVANDKKTSFIENRALSGGAIAASSDIAFQNCAELVFKGNCAIGTEDKGSLGGGAISSLGTVLLQGNHGITCDKNESASQGGAIFGKNCQISDNEGPVVFRDSTACLGGGAIAAQEIVSIQNNQAGISFEGGKASFGGGIACGSFSSAGGASVLGTIDISKNLGAISFSRTLCTTSDLGQMEYQGGGALFGENISLSENAGVLTFKDNIVKTFASNGKILGGGAILATGKVEITNNSEGISFTGNARAPQALPTQEEFPLFSKKEGRPLSSGYSGGGAILGREVAILHNAAVVFEQNRLQCSEEEATLLGCCGGGAVHGMDSTSIVGNSSVRFGNNYAMGQGVSGGALLSKTVQLAGNGSVDFSRNIASLGGGALQASEGNCELVDNGYVLFRDNRGRVYGGAISCLRGDVVISGNKGRVEFKDNIATRLYVEETVEKVEEVEPAPEQKDNNELSFLGRAEQSFITAANQA
notes: In solution a high-molecular-weight oligomer (720-1048 kDa by Blue Native-PAGE, calculated 10- to 15-mer); also called rPmpD; His-PmpD; source: E. coli Origami, purified (Ni-NTA agarose, dialysed in PBS); not shown: 10xHis, N-terminal, kept; copies: 10-15
Question: For B1, which binding is on record?
Answer: The binding was “binds”.
